Source: PMC10753161
Results are given in words; binding and its absence hold for the method and conditions named. Binding seen in cells or lysates may run through a third protein. Some results given as binding are weak or reduced against the parent protein; the word gives no strength.

Protein sequences, listed by entry. Tags and fused reporters are not part of them.
UniProt O81445: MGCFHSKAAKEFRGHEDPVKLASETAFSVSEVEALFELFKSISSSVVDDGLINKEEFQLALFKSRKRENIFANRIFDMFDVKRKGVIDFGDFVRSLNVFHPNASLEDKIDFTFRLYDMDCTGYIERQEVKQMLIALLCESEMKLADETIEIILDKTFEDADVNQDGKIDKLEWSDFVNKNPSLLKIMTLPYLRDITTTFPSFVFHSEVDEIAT

Target: T1, AtCIPK23 (Arabidopsis (from the prefix At)) (UniProt Q93VD3)
T1 sequence: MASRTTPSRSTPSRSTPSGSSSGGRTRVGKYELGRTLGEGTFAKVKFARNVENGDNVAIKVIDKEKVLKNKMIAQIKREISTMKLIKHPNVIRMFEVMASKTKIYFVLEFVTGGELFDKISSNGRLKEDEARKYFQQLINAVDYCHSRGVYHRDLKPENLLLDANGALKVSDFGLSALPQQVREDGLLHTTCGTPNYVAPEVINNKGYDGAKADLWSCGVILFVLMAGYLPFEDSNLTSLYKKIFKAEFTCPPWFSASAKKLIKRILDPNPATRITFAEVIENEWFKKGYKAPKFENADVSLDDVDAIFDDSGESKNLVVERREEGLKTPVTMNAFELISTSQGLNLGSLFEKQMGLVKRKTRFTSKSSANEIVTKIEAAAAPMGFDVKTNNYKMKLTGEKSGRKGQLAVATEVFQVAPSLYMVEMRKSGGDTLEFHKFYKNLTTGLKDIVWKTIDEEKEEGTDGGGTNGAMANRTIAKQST
Experiment: split reporter; luciferase complementation: cLUC and nLUC fusions expressed in Nicotiana benthamiana leaves by Agrobacterium GV3101, 3 days; luminescence by CCD camera and dual luciferase reporter kit (LUC/REN)

binding: binds
Substance: AtCBL1 (from UniProt O81445 1-213)
